These are yes or no findings as the source states them, for the method shown. In cells and extracts the contact can be indirect. These calls come from enrichment with a bait or labelling near it, and not all partners need be listed.

The target of the assay is T1, WDR63 (endogenous, mouse testicular extracts) (mouse (endogenous in testis)) (UniProt B2RY71).
T1 sequence: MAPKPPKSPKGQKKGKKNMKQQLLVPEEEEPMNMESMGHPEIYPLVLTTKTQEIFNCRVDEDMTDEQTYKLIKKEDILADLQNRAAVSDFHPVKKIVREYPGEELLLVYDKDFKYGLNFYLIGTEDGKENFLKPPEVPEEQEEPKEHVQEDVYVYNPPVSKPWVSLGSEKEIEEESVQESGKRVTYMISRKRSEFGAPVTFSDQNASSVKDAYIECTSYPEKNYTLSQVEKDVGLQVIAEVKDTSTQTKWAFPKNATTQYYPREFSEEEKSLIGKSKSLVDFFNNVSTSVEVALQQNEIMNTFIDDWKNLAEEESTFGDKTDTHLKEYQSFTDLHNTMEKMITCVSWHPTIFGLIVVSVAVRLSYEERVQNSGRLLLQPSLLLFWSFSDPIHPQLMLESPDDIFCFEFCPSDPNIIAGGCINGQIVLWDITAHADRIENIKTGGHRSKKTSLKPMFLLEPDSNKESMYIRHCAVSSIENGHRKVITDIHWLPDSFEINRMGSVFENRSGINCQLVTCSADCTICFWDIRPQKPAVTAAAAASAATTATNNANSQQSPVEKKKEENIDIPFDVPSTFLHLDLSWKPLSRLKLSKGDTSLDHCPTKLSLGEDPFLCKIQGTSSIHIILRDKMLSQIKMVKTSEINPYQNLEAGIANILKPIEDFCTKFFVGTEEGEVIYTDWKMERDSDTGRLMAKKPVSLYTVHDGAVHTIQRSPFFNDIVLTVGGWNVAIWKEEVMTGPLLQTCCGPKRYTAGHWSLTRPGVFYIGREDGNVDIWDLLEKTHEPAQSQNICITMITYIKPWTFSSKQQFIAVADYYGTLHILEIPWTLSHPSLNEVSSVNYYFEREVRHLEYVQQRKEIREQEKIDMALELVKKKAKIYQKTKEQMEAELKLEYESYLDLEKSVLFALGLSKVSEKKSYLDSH
As to the kind of experiment: affinity purification with mass spectrometry; immunoprecipitation with testicular extracts using anti-WDR63 antibodies, mass spectrometric analysis.

B1: WDR78 (endogenous, mouse testicular extracts) (protein, UniProt E9PYY5 1-807)
chain: MHSSPTSTRKQASFAASASAQPRKSISFINPSKSSAGKGYAASNPNKLAVSRTMGFLTDMKPAEKLNVPSAKTVQVLDSKGVDVTPRPLYHPDPHAASAKPNKLLTSQEGSLGSDYISSYSLYQNTLNPSMLGQYTRSVLGSSSVSKSSISTTESMSEDLEDSSYKRDRLASFTDVRVLRSTAEAAISKEELEKTIEIILTETETLRFFDLPTVMFSTESEEAEKIIEKNKKYETLCRNRLGNDLYVERMMQTFNGAPKNKEVQCEKIILEEKGVVATTWDLYDSYNIPETLLAAKRSGYSSKGSLPAKDRDPKIQDSESSSLMDIENVILAKVQEDEEDNSEAILKSDKLHQDLFYMERVLMENVFQPKLAAYRQLPVYKEHEPEEPEETLQVENLKVAEDEPKKEDEEEVEMELELEIATEQSTIPANLERLWSFSCDLTKGLNVSSLSWNKANPDLLAVGYGNFGFREQKKGMACCWSIKNPMWPERIYQSSYGVTSVDFSNSSPNLLAVGYHNGTVAIYNVQSSHNIPVLDSSESPQKHLGPVWQVQWIEQDRGTTGDDKREILVSISADGRISKWIIRKGLDCHDLMRLKRTTATGGKKGGEKEKKGEALISRQAPGMCFAFHPKDTNIYLAGTEEGLIHKCSCSYNEQYLETYRGHKGPVYKVTWNPFCPDVFLSCSADWGVMIWHQDTVKPFLSFYPTTYVVYDVSWSPKSAYIFAAANENRVEIWDLQISTLDPLIVNVANPGIKFTTVLFAKETDCLLVGDSDGQVAVYELRNMPTASDTSRGDVINILLGPKTNHTG
In the case of B1, the binding entry is listed as “binds”.

These data come from PMC8593051.
